Source: the supplement of paper PMC8166895
Where “and” joins values, the source holds several entries; their conditions need not be identical. Equal values may be shown once. Where a name gives a salt, the structure may show the parent alone. This is one part of the list. Most values lie at the level of the controls, where differences are scatter.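 Melting temperature was read by differential scanning fluorimetry in a single-replicate pilot screen of a library of approved drugs and clinical or known-target compounds. Compounds raising the melting point by at least 2 °C were the top stabilizing hits, and negative shifts mean destabilization.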

Each compound was assayed on SARS-CoV-2 main protease (Mpro, nsp5) (assay: thermal shift ΔTm of Mpro relative to plate average Tm; higher = stronger thermal stabilization of Mpro (binding)). Details: 10 µM; protein concentration 1 µM.

SMILES	thermal shift ΔTm of Mpro
CCN(CC)CCNC(=O)c1cc(Br)c(N)cc1OC [Bromopride]	-0.24 °C
CCCCC(=O)N(Cc1ccc(-c2ccccc2-c2nnn[nH]2)cc1)[C@H](C(=O)O)C(C)C [Valsartan]	0.0217 °C
OC(CCN1CCCCC1)(c1ccccc1)c1ccccc1 [Loxeen]	0.0368 °C
COc1cc(Nc2ncc3c(n2)-c2ccc(Cl)cc2C(c2c(F)cccc2OC)=NC3)ccc1C(=O)O [Alisertib (MLN8237)]	-0.288 °C
CC1(C)C(C(=O)Nc2ccc(S(=O)(=O)c3ccc(NC(=O)C4C(C)(C)C4(C)C)cc3)cc2)C1(C)C	0.324 °C
CCOC(CN1CCN(CC(C)C(=O)c2ccccc2)CC1)c1ccccc1 (stereo unspecified) [Eprazinone dihydrochloride]	0.0635 °C
OCC(CO)N[C@H]1C[C@](O)(CO)[C@@H](O)[C@H](O)[C@H]1O [Voglibose]	-0.0635 °C
Cc1cc(Nc2ncnc3ccc(NC4=NC(C)(C)CO4)cc23)ccc1Oc1ccn2ncnc2c1 [Irbinitinib]	0.145 °C
O=C(NCC1CCOCC1)c1cnc(Nc2ccc(Cl)cc2Cl)nc1C(F)(F)F	-0.0643 °C
C[C@]12CC[C@@H]3c4ccc(OC(=O)N(CCCl)CCCl)cc4CC[C@H]3[C@@H]1CC[C@@H]2OP(=O)(O)O [Estramustine phosphate sodium]	-0.224 °C
O=CC[C@@H](O)[C@H](O)[C@H](O)CO [2-Deoxy-D-glucose]	0.0608 °C
Cc1cnc(NC(=O)Nc2cc(Br)c(C)cc2OC[C@@H]2CNCCO2)cn1	0.0592 °C
Cc1c(C(=O)Nc2ccc(N3C[C@@H](C)O[C@@H](C)C3)nc2)cccc1-c1ccc(OC(F)(F)F)cc1 [LDE225 (NVP-LDE225,Erismodegib)]	-0.153 °C
O=C(NCCN1CCOCC1)Nc1ccc(C(=O)/C=C/c2cccc(N3CCOCC3)n2)cc1	-0.114 °C
Nc1cc(C(F)(F)F)c(-c2cc(N3CCOCC3)nc(N3CCOCC3)n2)cn1 [BKM120 (NVP-BKM120, Buparlisib)]	-0.0935 °C
O=C1S/C(=C\c2ccc(OCc3cccc(B(O)O)c3)cc2)C(=O)N1Cc1ccc(F)cc1	0.206 °C
Cc1ccc(Sc2cncc3sc(C(N)=O)cc23)cc1	-0.185 °C
CSCC[C@H](NC(=O)[C@H](Cc1c[nH]c2ccccc12)NC(=O)CCNC(=O)OC(C)(C)C)C(=O)N[C@@H](CC(=O)O)C(=O)N[C@@H](Cc1ccccc1)C(N)=O [Pentagastrin]	0.152 °C

Ordered by molecular weight (low to high): some entries from above.
SMILES	thermal shift ΔTm of Mpro
O=CC[C@@H](O)[C@H](O)[C@H](O)CO [2-Deoxy-D-glucose]	0.0608 °C
Cc1ccc(Sc2cncc3sc(C(N)=O)cc23)cc1	-0.185 °C
CCN(CC)CCNC(=O)c1cc(Br)c(N)cc1OC [Bromopride]	-0.24 °C
CCOC(CN1CCN(CC(C)C(=O)c2ccccc2)CC1)c1ccccc1 (stereo unspecified) [Eprazinone dihydrochloride]	0.0635 °C
Nc1cc(C(F)(F)F)c(-c2cc(N3CCOCC3)nc(N3CCOCC3)n2)cn1 [BKM120 (NVP-BKM120, Buparlisib)]	-0.0935 °C
O=C1S/C(=C\c2ccc(OCc3cccc(B(O)O)c3)cc2)C(=O)N1Cc1ccc(F)cc1	0.206 °C
Cc1cc(Nc2ncnc3ccc(NC4=NC(C)(C)CO4)cc23)ccc1Oc1ccn2ncnc2c1 [Irbinitinib]	0.145 °C

Going on with the list.

SMILES	thermal shift ΔTm of Mpro
CC(C)[C@H](N=C(NS(=O)(=O)c1ccc(Cl)cc1)N1C[C@H](c2ccccc2)C(c2ccc(Cl)cc2)=N1)C(N)=O	0.0716 °C
O=c1cc(N2CCOCC2)oc2c(-c3ccccc3)cccc12	0.144 °C
COc1cccc(-c2cc(F)ccc2C2Cc3nc(N)nc(C)c3C(=O)N2)n1 (stereo unspecified)	-0.0627 °C
CCOC(N)=O [Urethane]	-0.0329 °C
O=C(O)CCC(=O)c1ccc(-c2ccccc2)cc1 [Fenbufen]	0.0969 °C
CN1CCN2c3ccccc3Cc3ccccc3C2C1 (stereo unspecified) [Mianserin HCl]	0.163 °C
CCCCCCCCOc1ccccc1C(=O)Nc1ccc(C(=O)OCC[N+](C)(CC)CC)cc1 [Otilonium Bromide]	-0.417 °C
CN1CCCN(C(=O)c2cccc(-c3ccc(/C=C4/C(=O)Nc5ccc(Cl)cc54)o3)c2)CC1	0.144 °C
CCCCc1ncc(/C=C(\Cc2cccs2)C(=O)O)n1Cc1ccc(C(=O)O)cc1 [Eprosartan Mesylate]	-0.175 °C
CN(C)CCc1c[nH]c2ccc(CS(=O)(=O)N3CCCC3)cc12 [Almotriptan Malate]	0.157 °C
Cn1nc(C(C)(C)C)cc1C(=O)N[C@@H](Cc1cccc(Cl)c1)C(=O)NCC#N [Cathepsin Inhibitor 1]	-0.0687 °C
CCc1ccc(OCc2ccccc2C(=O)Nc2ccc3nc(C)cc(N)c3c2)cc1	0.0056 °C
CN(c1ncccc1CNc1nc(Nc2ccc3c(c2)CC(=O)N3)ncc1C(F)(F)F)S(C)(=O)=O	-0.155 °C and -0.0747 °C and -0.221 °C
CC(CNC(=O)c1cccnc1)NC(=O)c1cccnc1 (stereo unspecified) [Nicaraven]	0.134 °C
O=C1C=CC[C@@H]2[C@H]3CCCN4CCC[C@@H](CN12)[C@@H]34 [Sophocarpine]	-0.0961 °C
Clc1cccc(CN=C2Nc3ccccc3NC23CCNCC3)c1 [Liproxstatin-1]	-0.133 °C
O=C(Nc1ccccc1)N1CCN(c2nc(-c3ccccc3)ns2)CC1	-0.0196 °C
CCCC(=O)NCCc1csc(-c2ccc(Cl)cc2)n1 [Azoramide]	0.309 °C
